PMC9865144, “Crystal Structure of the SH3 Domain of ASAP1 in Complex with the Proline Rich Motif (PRM) of MICAL1 Reveals a Unique SH3/PRM Interaction Mode” (International Journal of Molecular Sciences, 2023)
Like-named read-outs stand apart in the source and are kept apart here. These are yes or no findings as the source states them, for the method shown. Binding seen in cells or lysates may run through a third protein. Some results given as binding are weak or reduced against the parent protein; the word gives no strength. Each block holds one molecule with its values, some of them ahead of it.

The chains behind the UniProt entries cited, without tags or fusion partners.
UniProt Q9QWY8: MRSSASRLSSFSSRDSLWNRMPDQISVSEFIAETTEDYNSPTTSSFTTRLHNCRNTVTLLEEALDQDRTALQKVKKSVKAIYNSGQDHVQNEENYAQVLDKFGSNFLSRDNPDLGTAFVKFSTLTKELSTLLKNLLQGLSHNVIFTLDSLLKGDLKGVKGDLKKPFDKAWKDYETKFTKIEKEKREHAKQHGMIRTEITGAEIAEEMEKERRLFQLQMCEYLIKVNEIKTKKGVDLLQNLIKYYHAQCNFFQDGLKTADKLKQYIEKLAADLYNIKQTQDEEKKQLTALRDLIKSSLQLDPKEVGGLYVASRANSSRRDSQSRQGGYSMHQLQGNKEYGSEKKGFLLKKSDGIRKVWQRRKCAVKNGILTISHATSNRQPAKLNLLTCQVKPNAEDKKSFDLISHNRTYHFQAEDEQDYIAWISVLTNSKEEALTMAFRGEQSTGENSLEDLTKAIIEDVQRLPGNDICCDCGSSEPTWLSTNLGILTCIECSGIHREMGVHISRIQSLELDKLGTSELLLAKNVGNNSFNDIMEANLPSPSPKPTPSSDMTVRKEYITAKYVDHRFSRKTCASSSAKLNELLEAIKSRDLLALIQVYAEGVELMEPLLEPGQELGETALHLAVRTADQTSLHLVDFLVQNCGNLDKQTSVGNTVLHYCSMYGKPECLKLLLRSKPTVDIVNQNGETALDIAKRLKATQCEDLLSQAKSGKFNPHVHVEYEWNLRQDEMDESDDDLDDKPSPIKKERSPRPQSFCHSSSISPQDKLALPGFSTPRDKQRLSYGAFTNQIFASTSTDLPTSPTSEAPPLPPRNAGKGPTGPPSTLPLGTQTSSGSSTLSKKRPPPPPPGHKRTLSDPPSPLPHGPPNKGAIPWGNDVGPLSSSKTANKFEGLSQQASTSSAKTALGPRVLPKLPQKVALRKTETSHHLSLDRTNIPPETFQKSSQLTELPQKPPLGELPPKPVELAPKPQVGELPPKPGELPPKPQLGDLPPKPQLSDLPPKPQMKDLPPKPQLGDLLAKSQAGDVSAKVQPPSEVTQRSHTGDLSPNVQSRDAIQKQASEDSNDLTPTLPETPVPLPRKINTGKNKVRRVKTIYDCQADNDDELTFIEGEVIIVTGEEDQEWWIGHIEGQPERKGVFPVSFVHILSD
UniProt Q08AE8: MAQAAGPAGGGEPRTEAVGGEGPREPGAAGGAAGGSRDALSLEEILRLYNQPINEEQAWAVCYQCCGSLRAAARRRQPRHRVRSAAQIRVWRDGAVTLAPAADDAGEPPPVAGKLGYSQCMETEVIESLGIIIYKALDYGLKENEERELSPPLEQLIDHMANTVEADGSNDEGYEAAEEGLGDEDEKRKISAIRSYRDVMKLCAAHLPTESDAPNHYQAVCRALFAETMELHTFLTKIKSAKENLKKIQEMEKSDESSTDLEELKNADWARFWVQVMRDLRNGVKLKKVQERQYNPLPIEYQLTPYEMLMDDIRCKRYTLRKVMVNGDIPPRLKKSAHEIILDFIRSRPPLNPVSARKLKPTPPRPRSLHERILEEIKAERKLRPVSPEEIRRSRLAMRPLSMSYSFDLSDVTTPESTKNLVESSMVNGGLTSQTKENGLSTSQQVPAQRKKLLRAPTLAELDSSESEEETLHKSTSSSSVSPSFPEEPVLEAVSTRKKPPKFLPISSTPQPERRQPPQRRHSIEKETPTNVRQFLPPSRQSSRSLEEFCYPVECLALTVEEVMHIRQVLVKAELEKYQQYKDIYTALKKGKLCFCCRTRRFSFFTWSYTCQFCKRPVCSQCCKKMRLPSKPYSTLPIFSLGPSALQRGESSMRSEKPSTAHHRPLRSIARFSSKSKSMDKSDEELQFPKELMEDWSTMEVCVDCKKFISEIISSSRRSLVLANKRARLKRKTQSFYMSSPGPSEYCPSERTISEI

How the values were obtained:
[1] = molecular target: full-length mouse ASAP1, for cell transfection (mouse) (UniProt Q9QWY8); assay: co-IP; 293T cells cotransfected with Flag- and GFP-tagged plasmids, 24 h; lysis buffer 50 mM Tris pH 7.5, 100 mM NaCl, 1% Triton X-100; GFP beads 1 h at 4 °C; Western blotting
[2] = molecular target: full-length mouse ASAP1, for cell transfection (mouse) (UniProt Q9QWY8); assay: as above; remark: listed apart in the source

binding [1]: binds weakly
Molecule: full-length human Spire1, for cell transfection (from UniProt Q08AE8 1-756)

binding [2]: binds
B1: full-length human MICAL1, for cell transfection (protein, UniProt Q8TDZ2 1-1067)
chain: MASPTSTNPAHAHFESFLQAQLCQDVLSSFQELCGALGLEPGGGLPQYHKIKDQLNYWSAKSLWTKLDKRAGQPVYQQGRACTSTKCLVVGAGPCGLRVAVELALLGARVVLVEKRTKFSRHNVLHLWPFTIHDLRALGAKKFYGRFCTGTLDHISIRQLQLLLLKVALLLGVEIHWGVTFTGLQPPPRKGSGWRAQLQPNPPAQLANYEFDVLISAAGGKFVPEGFKVREMRGKLAIGITANFVNGRTVEETQVPEISGVARIYNQSFFQSLLKATGIDLENIVYYKDDTHYFVMTAKKQCLLRLGVLRQDWPDTNRLLGSANVVPEALQRFTRAAADFATHGKLGKLEFAQDAHGQPDVSAFDFTSMMRAESSARVQEKHGARLLLGLVGDCLVEPFWPLGTGVARGFLAAFDAAWMVKRWAEGAESLEVLAERESLYQLLSQTSPENMHRNVAQYGLDPATRYPNLNLRAVTPNQVRDLYDVLAKEPVQRNNDKTDTGMPATGSAGTQEELLRWCQEQTAGYPGVHVSDLSSSWADGLALCALVYRLQPGLLEPSELQGLGALEATAWALKVAENELGITPVVSAQAVVAGSDPLGLIAYLSHFHSAFKSMAHSPGPVSQASPGTSSAVLFLSKLQRTLQRSRAKENAEDAGGKKLRLEMEAETPSTEVPPDPEPGVPLTPPSQHQEAGAGDLCALCGEHLYVLERLCVNGHFFHRSCFRCHTCEATLWPGGYEQHPGDGHFYCLQHLPQTDHKAEGSDRGPESPELPTPSENSMPPGLSTPTASQEGAGPVPDPSQPTRRQIRLSSPERQRLSSLNLTPDPEMEPPPKPPRSCSALARHALESSFVGWGLPVQSPQALVAMEKEEKESPFSSEEEEEDVPLDSDVEQALQTFAKTSGTMNNYPTWRRTLLRRAKEEEMKRFCKAQTIQRRLNEIEAALRELEAEGVKLELALRRQSSSPEQQKKLWVGQLLQLVDKKNSLVAEEAELMITVQELNLEEKQWQLDQELRGYMNREENLKTAADRQAEDQVLRKLVDLVNQRDALIRFQEERRLSELALGTGAQG
